Some of these results come from one statement about several compounds together.
Tested on: laser-induced CNV
Experiment: laser-induced mouse model of choroidal neovascularization (CNV), CNV size by confocal microscopy
Format: in vivo, C57BL/6 mice
Conditions: injected i.p or i-vit. (both routes together)
Description: Animals (C57BL/6 mice) were divided into 3 groups. CNV was induced by laser photocoagulation in group 1 (n=5) with the krypton red laser (50 μm spot size; 0.05 s duration; 250 mW), as previously described (Bora et al. 2003 Proc. Natl. Acad. Sci. USA 100:2679-2685; Bora et al. 2005 J. Immunol. 174:491-497) and no APN was administered to these mice. Three laser spots were placed in each eye close to the optic nerve. In group 2 (n=5), the mice were treated, i.p., with 25 μg of rAPN, one day before laser photocoagulation and every day after laser treatment until day 6. Group 3 animals received subretinal injections on days 0, 1, and 3 in one eye, the other eye received PBS as control. All the experiments were repeated three times.
We injected 50 μg peptide NH2-LQVYGDGDHNGLYADNVN-COOH (SEQ ID NO: 1, synthesized at Peptide Biochemical Research Inc. Seattle, USA; dissolved in PBS) intraperitoneally (i.p.) to mice (n=5) as well as intravitreally (i-vit.). Six i.p. injections were given, one preceding laser treatment and five following the laser treatment. Control group was given sterile PBS. […]
Seven days after laser treatment, the eyes of all animals were perfused with 1 ml of PBS containing 50 mg/ml fluorescein-labeled dextran (FITC-dextran; average molecular mass, 2×10^6; Sigma-Aldrich) and the animals were sacrificed. […] The incidence and the size of CNV were determined by confocal microscopy. […]

Row | Molecule | decrease in the CNV complex size compared to control mice
1 | H-LQVYGDGDHNGLYADNVN-OH [18 mer peptide, 18 mer synthetic peptide, amino acid residues 216-233 of mouse adiponectin globular domain] | 70-80%
2 | rAPN: mouse recombinant adiponectin polypeptide of about 30 kDa obtained from BioVision Research Products (protein, UniProt Q60994 18-247, looked up) Adiponectin: EDDVTTTEELAPALVPPPKGTCAGWMAGIPGHPGHNGTPGRDGRDGTPGEKGEKGDAGLLGPKGETGDVGMTGAEGPRGFPGTPGRKGEPGEAAYVYRSAFSVGLETRVTVPNVPIRFTKIFYNQQNHYDGSTGKFYCNIPGLYYFSYHITVYMKDVKVSLFKKDKAVLFTYDQYQEKNVDQASGSVLLHLEVGDQVWLQVYGDGDHNGLYADNVNDSTFTGFLLYHDTN | 70-80%

— patent US7964557B2, “Inhibition of wet type age related macular degeneration (AMD) by adiponectin or acrp 30” (University of Louisville Research Foundation, Inc., priority 2005, dated 2011)
